Experimental data: US20210311023A1, “CHEMICAL COCKTAIL FOR INDUCING SENESCENCE IN HUMAN NEURONS TO PROMOTE DISEASE MODELING AND DRUG DISCOVERY” (priority 2019, published 2021)
At least one structure is not confirmed: it was looked up by name or label, or the drawing left a doubt.

Tested on: cerebral cortical neurons from GFP-expressing hESCs (H9, WA09)
Experiment: High-content imaging of senescence markers H3k9Me3, Lap2β, HP1γ, LaminB2 in cortical neurons
Format: cell-based, human
Procedure: To identify small molecules that induce CS in the embryonic neurons, cerebral cortical neurons from GFP-expressing hESCs (H9, WA09) were generated according to an established protocol (Qi Y et al. Nat Biotechnol. 35(2):154-63 (2017)) (FIG. 8). […] Neuronal cultures were then treated with these small molecules for 4 consecutive days and assayed for CS hallmarks (FIG. 8). The criteria for positive molecules were expression of CS markers without inducing obvious DNA damage and cell death. […]
Cells were fixed for 20 minutes with 4% paraformaldehyde in PBS at a room temperature. […] Then total brunch length was calculated for labeled skeletons (total branch length in pixel/10,000=branch length in cm) and the total number of aggregates were divided by the branch length.
For measuring cell population, fluorescence intensity, apoptosis, and intensity of H3K9Me3, Lamin B2, Lap2β, and HP1γ, cells were plated in 96-well imaging plates (18000 cells per well, cell carrier) and treated with different molecules (FIG. 11). After staining, images were analyzed using the high-content cellular analysis system Operetta (Perkin Elmer). A set of 60 fields was collected from each well (total of three wells per treatment) using the 40× objective, resulting in over 10,000 cells being scored per well.

SMILES: C/C=C1\NC(=O)[C@H]2CSSCC/C=C/[C@H](CC(=O)N[C@H](C(C)C)C(=O)N2)OC(=O)[C@H](C(C)C)NC1=O [Romidepsin]
- HP1γ expression compared to the mean expression in the control group: induced a greater expression of HP1γ
